Results are given in words; binding and its absence hold for the method and conditions named. Binding can be weak; no strength is given.
Molecular target: cut-vertex two component signaling system Hik21, AP07430015 (Spirulina platensis strain C1)
Test: two-hybrid; bait plasmid in Y2HGold mated with prey plasmid in Y187 (strains also switched), 2XYPDA, 30°C, 24 hr; plated on DDO and DDO/X/A, blue colonies streaked onto high stringency QDO/X/A, 30°C

binding: binds
B1: Uroporphyrinogen decarboxylase (UroD or HemE), AP06900013 (enzyme, UniProt A0ABX3XNX7 1-388)
chain: MRASPIRRRPRAHAEISATCPDRRARRRAKIWGVSANLSPAGQQQTGTEHSAFLKACRREPVPHTPVWFMRQAGRSLPEYRKVREGIAMLDSCMRPELVTEITLQPVRRHNVDAAIYFSDIVVPLKAIGIDLDIKPGIGPVVENPIRTRADLEQLRPLEAGDVPYVTEAIGMLVRELGGTPLIGFAGAPFTLASYLVEGGPSRNHERTKALMYGDPQLWADLLDRLADITATFLQVQIAAGASAVQLFDSWVGALSPADYRRSVMPASAKVFRAVEGLGVPRIHFGVGTGELLGLLGEAGADVVGVDWRVPLDEAARRVGPGKALQGNIDPAVLFAPREAVETKAREVLDAAAGLEGHIFNLGHGVLPTTDPDALTRLVEYVHTQTAR

From article PMC3162491
